In doi:10.1101/2020.10.05.326595:
These are yes or no findings as the source states them, for the method shown. Binding seen in cells or lysates may run through a third protein. Some results given as binding are weak or reduced against the parent protein; the word gives no strength. Tags and fused reporters may be left off the sequences shown.

Key:
Assay in all cases: co-IP
[1] = molecular target: T1, 3F6H-ZTL G46A (full-length ZTL G46A with 3xFLAG-6xHis tag) (UniProt Q94BT6)
T1 sequence: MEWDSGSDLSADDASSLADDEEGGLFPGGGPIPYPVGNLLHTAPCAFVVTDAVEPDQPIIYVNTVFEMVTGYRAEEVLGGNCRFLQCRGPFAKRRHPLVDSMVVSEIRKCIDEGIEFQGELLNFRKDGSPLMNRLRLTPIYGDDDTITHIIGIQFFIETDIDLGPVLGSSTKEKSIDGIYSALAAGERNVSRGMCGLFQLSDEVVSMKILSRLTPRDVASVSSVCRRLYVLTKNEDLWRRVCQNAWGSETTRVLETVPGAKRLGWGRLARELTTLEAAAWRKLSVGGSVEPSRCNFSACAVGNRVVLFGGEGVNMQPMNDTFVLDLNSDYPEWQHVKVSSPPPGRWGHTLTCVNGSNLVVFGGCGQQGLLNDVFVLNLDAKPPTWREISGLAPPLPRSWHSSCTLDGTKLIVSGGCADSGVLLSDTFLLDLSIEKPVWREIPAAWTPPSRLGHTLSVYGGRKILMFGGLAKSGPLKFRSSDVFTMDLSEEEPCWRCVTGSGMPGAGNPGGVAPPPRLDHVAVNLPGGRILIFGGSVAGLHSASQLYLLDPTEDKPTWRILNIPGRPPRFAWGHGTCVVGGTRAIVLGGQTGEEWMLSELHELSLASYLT

[2] = molecular target: T2, 3F6H-ZTL G46S (full-length ZTL G46S with 3xFLAG-6xHis tag) (UniProt Q94BT6)
T2 sequence: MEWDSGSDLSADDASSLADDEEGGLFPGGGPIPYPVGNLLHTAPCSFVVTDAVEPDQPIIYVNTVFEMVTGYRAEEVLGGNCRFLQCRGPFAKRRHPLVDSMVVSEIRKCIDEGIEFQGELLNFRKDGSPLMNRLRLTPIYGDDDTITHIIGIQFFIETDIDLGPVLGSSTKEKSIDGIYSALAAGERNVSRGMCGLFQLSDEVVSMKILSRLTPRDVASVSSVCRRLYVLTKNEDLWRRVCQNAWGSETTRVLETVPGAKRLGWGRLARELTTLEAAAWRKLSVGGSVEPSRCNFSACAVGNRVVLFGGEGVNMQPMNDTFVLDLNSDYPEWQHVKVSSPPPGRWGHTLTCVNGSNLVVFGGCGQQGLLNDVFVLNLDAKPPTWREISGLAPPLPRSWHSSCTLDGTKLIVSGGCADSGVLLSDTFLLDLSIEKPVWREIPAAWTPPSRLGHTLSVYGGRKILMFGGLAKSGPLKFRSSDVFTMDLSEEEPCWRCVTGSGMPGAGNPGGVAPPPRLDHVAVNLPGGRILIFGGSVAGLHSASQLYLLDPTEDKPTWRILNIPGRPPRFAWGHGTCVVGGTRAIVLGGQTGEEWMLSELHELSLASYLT

[3] = molecular target: T3, 3F6H-ZTL Q154L (full-length ZTL Q154L with 3xFLAG-6xHis tag) (UniProt Q94BT6)
T3 sequence: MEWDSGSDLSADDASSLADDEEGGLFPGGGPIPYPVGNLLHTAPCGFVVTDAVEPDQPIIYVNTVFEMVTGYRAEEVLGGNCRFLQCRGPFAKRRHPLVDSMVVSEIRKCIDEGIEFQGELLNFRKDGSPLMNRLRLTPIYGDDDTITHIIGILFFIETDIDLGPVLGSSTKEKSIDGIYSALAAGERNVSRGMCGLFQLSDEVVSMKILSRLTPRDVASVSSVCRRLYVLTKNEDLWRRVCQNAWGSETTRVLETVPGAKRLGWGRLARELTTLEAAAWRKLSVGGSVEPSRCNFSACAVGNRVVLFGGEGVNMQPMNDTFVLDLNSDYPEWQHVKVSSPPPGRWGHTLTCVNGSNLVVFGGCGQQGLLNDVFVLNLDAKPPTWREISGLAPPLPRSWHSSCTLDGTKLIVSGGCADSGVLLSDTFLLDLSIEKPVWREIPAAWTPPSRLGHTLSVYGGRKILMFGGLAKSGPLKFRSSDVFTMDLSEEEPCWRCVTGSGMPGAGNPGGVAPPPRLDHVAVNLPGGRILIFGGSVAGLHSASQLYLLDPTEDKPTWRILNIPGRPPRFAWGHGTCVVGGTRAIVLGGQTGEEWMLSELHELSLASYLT

Measured: binding

B1: HA-GI (HA-tagged GIGANTEA) (protein, UniProt Q9SQI2 1-1173)
chain: MASSSSSERWIDGLQFSSLLWPPPRDPQQHKDQVVAYVEYFGQFTSEQFPDDIAELVRHQYPSTEKRLLDDVLAMFVLHHPEHGHAVILPIISCLIDGSLVYSKEAHPFASFISLVCPSSENDYSEQWALACGEILRILTHYNRPIYKTEQQNGDTERNCLSKATTSGSPTSEPKAGSPTQHERKPLRPLSPWISDILLAAPLGIRSDYFRWCSGVMGKYAAGELKPPTIASRGSGKHPQLMPSTPRWAVANGAGVILSVCDDEVARYETATLTAVAVPALLLPPPTTSLDEHLVAGLPALEPYARLFHRYYAIATPSATQRLLLGLLEAPPSWAPDALDAAVQLVELLRAAEDYASGVRLPRNWMHLHFLRAIGIAMSMRAGVAADAAAALLFRILSQPALLFPPLSQVEGVEIQHAPIGGYSSNYRKQIEVPAAEATIEATAQGIASMLCAHGPEVEWRICTIWEAAYGLIPLNSSAVDLPEIIVATPLQPPILSWNLYIPLLKVLEYLPRGSPSEACLMKIFVATVETILSRTFPPESSRELTRKARSSFTTRSATKNLAMSELRAMVHALFLESCAGVELASRLLFVVLTVCVSHEAQSSGSKRPRSEYASTTENIEANQPVSNNQTANRKSRNVKGQGPVAAFDSYVLAAVCALACEVQLYPMISGGGNFSNSAVAGTITKPVKINGSSKEYGAGIDSAISHTRRILAILEALFSLKPSSVGTPWSYSSSEIVAAAMVAAHISELFRRSKALTHALSGLMRCKWDKEIHKRASSLYNLIDVHSKVVASIVDKAEPLEAYLKNTPVQKDSVTCLNWKQENTCASTTCFDTAVTSASRTEMNPRGNHKYARHSDEGSGRPSEKGIKDFLLDASDLANFLTADRLAGFYCGTQKLLRSVLAEKPELSFSVVSLLWHKLIAAPEIQPTAESTSAQQGWRQVVDALCNVVSATPAKAAAAVVLQAERELQPWIAKDDEEGQKMWKINQRIVKVLVELMRNHDRPESLVILASASDLLLRATDGMLVDGEACTLPQLELLEATARAIQPVLAWGPSGLAVVDGLSNLLKCRLPATIRCLSHPSAHVRALSTSVLRDIMNQSSIPIKVTPKLPTTEKNGMNSPSYRFFNAASIDWKADIQNCLNWEAHSLLSTTMPTQFLDTAARELGCTISLSQ
binds: all assays above
